No constants are given. Whether binding was seen depends on the method and setting. Some results given as binding are weak or reduced against the parent protein; the word gives no strength.

Amino acid sequences for entries named in this document (tags omitted). Residues count along the entry.
UniProt P35968, residues 20-764: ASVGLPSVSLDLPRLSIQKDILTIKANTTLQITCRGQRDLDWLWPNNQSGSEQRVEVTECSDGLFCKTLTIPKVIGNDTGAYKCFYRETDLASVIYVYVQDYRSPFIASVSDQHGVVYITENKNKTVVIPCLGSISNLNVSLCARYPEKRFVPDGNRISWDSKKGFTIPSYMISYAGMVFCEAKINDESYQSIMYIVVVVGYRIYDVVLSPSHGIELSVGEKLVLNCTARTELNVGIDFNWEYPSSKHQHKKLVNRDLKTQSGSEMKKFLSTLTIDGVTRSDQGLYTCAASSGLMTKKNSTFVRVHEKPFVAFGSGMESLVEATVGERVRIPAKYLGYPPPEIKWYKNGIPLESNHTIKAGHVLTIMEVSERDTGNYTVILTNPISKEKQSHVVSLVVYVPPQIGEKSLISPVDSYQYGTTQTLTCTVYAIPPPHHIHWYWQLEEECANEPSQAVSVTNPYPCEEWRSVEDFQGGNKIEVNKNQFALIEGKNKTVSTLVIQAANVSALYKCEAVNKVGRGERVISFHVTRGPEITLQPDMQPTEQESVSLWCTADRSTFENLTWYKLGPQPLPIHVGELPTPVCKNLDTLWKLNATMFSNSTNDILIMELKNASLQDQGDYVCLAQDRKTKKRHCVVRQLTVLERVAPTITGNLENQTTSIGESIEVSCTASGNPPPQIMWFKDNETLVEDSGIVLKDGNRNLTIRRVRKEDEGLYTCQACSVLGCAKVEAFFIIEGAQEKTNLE

This note sets out measurements from patent US20190241666A1.

Assay [1] has as its target VEGFR2-ECD Fc fusion protein (human) (UniProt P35968). The assay can be described thus: ELISA, purified Fab on plates coated with VEGFR2-ECD Fc protein. (In an ELISA, binding on a coated surface is turned into a signal by an enzyme label.)
Assay [2] deals with human VEGFR2 (as used in the ELISAs of Example 2) (human) (UniProt P35968). The assay can be described thus: ELISA, eight 1:4 dilutions from 800 ng/well.
Assay [3] has the same target. The assay can be described thus: ELISA.

B1: 1A10 Fab protein (clone from the OPAL phage library, expressed in E. coli ER2537) (Fab, V domains shown)
VH: EVQLLESGGGLVQPGGSLRLSCAASGFTFSDYDMSWVRQAPGKGLEWVSSIYPGDSSTYYADSVKGRFTISRDNSKNTLYLQMNSLRAEDTAVYYCAKEEVAFDYWGQGTLVTVSS
VL: QSVLTQPPSASGTPGQRVTISCTGSSSNIGNYYVYWYQQLPGTAPKLLIYANSHRPSGVPDRFSGSKSGTSASLAISGLRSEDEADYYCATWDASLSGYVFGGGTKLTVL
Regarding B1, in assay [1], the binding entry is given as “binds”.

B2: 1A10 antibody (IgG-converted) (antibody, V domains shown)
VH: B1 VH
VL: B1 VL
On to B2, for which the binding result in assay [2] and in assay [3] was “binds” throughout.
